{
  "source": "patent US20190292243A1",
  "about": "“PEPTIDES AND METHODS OF USE THEREOF” (Fred Hutchinson Cancer Research Center, priority 2016, published 2019)",
  "tested_on": "A375 cells and RH28 cells",
  "experiment": "Modulation of SEQ ID NO: 15-A accumulation in cells by small molecule drugs (flow cytometry median fluorescence)",
  "assay_type": "cell-based",
  "conditions": "drug at increasing concentrations with 1 μM SEQ ID NO: 15-A",
  "from_the_text": "This example illustrates the small molecule drug enhancing properties of peptides of this disclosure. Peptides of this disclosure were useful in enhancing or dampening the potency of several small molecule drugs. […] The Approved Oncology Drugs Plated Set VII was obtained from NCI and included histone deacetylase (HDAC) inhibitors such as vorinostat, belinostat, panobinostat, and […]. The tested set also included tyrosine kinase inhibitors, protease inhibitors, and anthracyclines. A375 cells and RH28 cells were plated at 10,000 cells per well in 96 well plates and allowed to adhere overnight. […] Cells were washed three times with PBS-FBS and once in PBS. Cells were trypsinized, resuspended in PBS-FBS-DAPI, and assessed for average fluorescence as compared to untreated cells by flow cytometry analysis. […] Cells were washed three times with PBS-FBS and once in PBS. Cells were trypsinized, resuspended in PBS-FBS-DAPI, and assessed for average fluorescence as compared to untreated cells by flow cytometry analysis.",
  "note": "At least one compound was matched to its structure with a doubt left.",
  "data": [
    {"smiles": "CC(=O)c1c(C)c2cnc(Nc3ccc(N4CCNCC4)cn3)nc2n(C2CCCC2)c1=O", "note": "[palbociclib]", "values": [
      {"measurement": "modulation of accumulation of SEQ ID NO: 15-A in tumor cells (median fluorescence vs untreated)", "result": "modulate the accumulation of peptides of this disclosure to tumor cells"}
    ]}
  ]
}
